{"source": "patent US20200197266A1", "about": "“MICROGELS FOR THE DELIVERY OF COSMETIC ACTIVE ORGANIC SUBSTANCES” (LVMH RECHERCHE, priority 2017, published 2020)", "test": "Encapsulation of cosmetic active molecules into bare microgel dispersion (entrapment efficiency)", "settings": "OEGDA-microgel dispersion", "key": {"[1]": {"settings": "all tested feeding concentrations and encapsulation temperatures"}}}
{"molecule": "CC(C)=CCCC(C)CCO", "note": "(stereo not drawn) [Citronellol, 3,7-dimethyloct-6-en-1-ol]", "values": [{"measurement": "E.E. (entrapment efficiency)", "setting": "[1]", "value": "> 70", "unit": "%"}]}
{"molecule": "CCCCC(CC)COC(=O)c1ccccc1O", "note": "(stereo not drawn) [Escalol, 2-ethylhexyl salicylate]", "values": [{"measurement": "E.E. (entrapment efficiency)", "setting": "[1]", "value": "above 90%"}]}
{"molecule": "CCCCCCOC(=O)c1ccccc1C(=O)c1ccc(N(CC)CC)cc1O", "note": "[Uvinul-A, hexyl 2-[4-(diethylamino)-2-hydroxybenzoyl]benzoate]", "values": [{"measurement": "E.E. % (entrapment efficiency)", "setting": "feeding substance amount between 1,500 and 3,000 μg/mg microgel", "value": "higher than 50%"}, {"measurement": "E.E. % (entrapment efficiency)", "setting": "feeding substance amount lower than 1,500 μg/mg microgel, encapsulation at 20° C. or 50° C.", "value": "higher than 70%"}]}
{"molecule": "COc1cc(O)c(C(=O)c2ccccc2)cc1S(=O)(=O)O", "note": "[Benzophenone-4, 4-Hydroxy-2-methoxy-5-(oxo-phenylmethyl)benzenesulfonic acid]", "values": [{"measurement": "E.E. (entrapment efficiency)", "setting": "feeding substance amount lower than 1 mg/(mg unloaded microgels), 20° C. and 50° C.", "value": "higher than 80%"}]}
{"molecule": "Hyaluronic acid", "values": [{"measurement": "E.E. (entrapment efficiency)", "setting": "at 600 microgram/mg, encapsulation pH 6", "value": 50, "unit": "%"}]}
